# Assay results from PubChem BioAssay AID1117319 (Southern Research Institute, 2015).
# The chains behind the UniProt entries cited, without tags or fusion partners. Where a name states a change or a piece, a line headed by the entry shows the natural chain unless it says otherwise.
# UniProt P69720: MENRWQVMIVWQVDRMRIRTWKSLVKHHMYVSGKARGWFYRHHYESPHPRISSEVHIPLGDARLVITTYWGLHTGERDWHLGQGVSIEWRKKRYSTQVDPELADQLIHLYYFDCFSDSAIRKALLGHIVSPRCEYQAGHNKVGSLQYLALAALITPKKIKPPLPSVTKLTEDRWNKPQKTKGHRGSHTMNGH
# UniProt P69721: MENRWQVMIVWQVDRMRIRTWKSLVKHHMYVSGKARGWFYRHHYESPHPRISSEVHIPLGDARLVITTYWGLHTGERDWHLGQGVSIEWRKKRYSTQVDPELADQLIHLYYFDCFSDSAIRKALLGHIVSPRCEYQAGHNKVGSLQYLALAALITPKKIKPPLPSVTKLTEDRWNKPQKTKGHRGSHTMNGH
# UniProt P69722: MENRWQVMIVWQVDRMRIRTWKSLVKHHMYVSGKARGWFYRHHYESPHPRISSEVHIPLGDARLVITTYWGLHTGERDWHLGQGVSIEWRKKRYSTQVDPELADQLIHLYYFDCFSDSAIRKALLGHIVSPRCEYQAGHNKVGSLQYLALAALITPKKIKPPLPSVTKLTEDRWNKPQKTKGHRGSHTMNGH
# UniProt P69723: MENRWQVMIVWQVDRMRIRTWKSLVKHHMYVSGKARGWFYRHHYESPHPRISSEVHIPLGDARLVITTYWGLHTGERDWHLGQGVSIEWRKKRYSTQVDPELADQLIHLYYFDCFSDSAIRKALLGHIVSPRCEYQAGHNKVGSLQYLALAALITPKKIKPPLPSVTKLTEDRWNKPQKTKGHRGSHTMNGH
# UniProt Q9HC16: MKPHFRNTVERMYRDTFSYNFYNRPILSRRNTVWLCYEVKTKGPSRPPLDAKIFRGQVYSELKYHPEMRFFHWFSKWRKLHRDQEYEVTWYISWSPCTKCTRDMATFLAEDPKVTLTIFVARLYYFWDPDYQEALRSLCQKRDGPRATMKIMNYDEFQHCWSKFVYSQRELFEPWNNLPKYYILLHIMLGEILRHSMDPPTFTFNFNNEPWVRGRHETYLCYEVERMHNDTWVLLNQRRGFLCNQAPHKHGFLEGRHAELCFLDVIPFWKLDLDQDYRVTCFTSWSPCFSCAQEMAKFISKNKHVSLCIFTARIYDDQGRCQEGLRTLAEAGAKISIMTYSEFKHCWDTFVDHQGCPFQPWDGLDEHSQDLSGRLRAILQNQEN
# The whole screen tested about 260,000 compounds, of which about 1,500 (0.58%) were called active. Inconclusive results, whose numbers are uncertain, are shown with a selection of clear calls.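 Rule for the calls: active = inhibition above a set limit at one or more doses, reproduced on every date tested; inconclusive = results disagree between test dates, or hit never tested in dose response; inactive = the rest.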
# Molecular target: Virion infectivity factor (Human immunodeficiency virus type 1 group M subtype B (isolate BH10)) + Virion infectivity factor (Human immunodeficiency virus type 1 group M subtype B (isolate BRU/LAI)) + Virion infectivity factor (Human immunodeficiency virus type 1 group M subtype B (isolate PCV12)) + Virion infectivity factor (Human immunodeficiency virus type 1 group M subtype B (isolate HXB2)) + DNA dC->dU-editing enzyme APOBEC-3G (Homo sapiens) (UniProt P69720+P69721+P69722+P69723+Q9HC16)
# Test: inhibitors of Vif binding to APOBEC3G peptide, primary screen, biochemical, TR-FRET, GST-Vif 1-94, biotin-A3G peptide, dose response retest (AID 1117319);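 note: Vif residues 1-94 fused to GST binding biotinylated APOBEC3G peptide 110-148; 0% = full assay without inhibitor and 100% = GST in place of GST-Vif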
# Conditions: active compounds read high
row,SMILES,inhibition
1,N=C1/C(=C\c2ccc(-c3ccc(C(=O)O)cc3)o2)C(=O)N=C2SC=C(c3ccccc3)N12,inconclusive: 33.3%
2,COc1cc(/C=C2\C(C)=C(C#N)c3nc(N)c(C#N)c(C)c32)ccc1OCC(=O)O,inconclusive: 38.2%
3,CCOC(=O)C1=NN(c2ccccc2)C2(S1)SC(C(C)=O)=C(C)N2c1ccccc1 (configuration not stated),inconclusive: 34.3%
4,CCc1ccccc1N=C1SCC(=O)N1C,inconclusive: 14.5%
5,O=c1cc(-c2cc3ccccc3o2)c2cc(O)ccc2o1,inconclusive: 33.6%
6,O=C(N/N=C/c1ccc([N+](=O)[O-])o1)C(=O)Nc1ccc(C(=O)O)cc1,inconclusive: 55.6%
7,Cc1cc(C)c(N=C2SCC(=O)N2Cc2ccco2)c(C)c1,inconclusive: 41.9%
8,O=C(CN1CCN(c2ccc(O)cc2)CC1)Nc1cc(S(=O)(=O)N2CCOCC2)ccc1Cl,inconclusive: 47%
9,O=C1c2nc3cc(-c4ccccc4)[nH]n3c(=O)c2CN1Cc1ccccc1,inconclusive: 35.1%
10,O=[N+]([O-])c1cccc(/C=C/c2ccccn2)c1,inconclusive: 47.6%
11,CC12CCC(C(=Nc3ccc(N=C4C(=O)C5(C)CCC4C5(C)C)cc3)C1=O)C2(C)C,inconclusive: 43.6%
12,NNC(=O)CNC(=O)c1ccccc1F,inconclusive: 36.6%
13,CCOC(=O)c1c(-c2ccc(C)cc2)csc1/N=C(\C)C1=C(O)c2ccccc2C1=O,inconclusive: 33.5%
14,CCCCC(CC)C(=O)Oc1ccc(O)c(C(C)(C)C)c1 (configuration not stated),inconclusive: 56.2%
15,Cc1ccc(S(=O)(=O)N2CCC(C(=O)N[C@H](C(=O)NCC3CCCO3)C(C)C)CC2)cc1 (some centres not stated),inconclusive: 40.9%
16,COC(=O)c1ccc2nc(NC(=O)COC(=O)CSc3nc(C)cc(C)n3)sc2c1,inconclusive: 44.1%
17,O=c1c2ccccc2nc(N/N=C/c2c(O)ccc3ccccc23)n1O,inconclusive: 50.4%
18,O=C(NCc1ccc2c(c1)OCO2)C1CCN(S(=O)(=O)N2CCOCC2)CC1,inconclusive: 33.2%
19,O=c1cc(CSc2ccc(Cl)cc2)nc(-c2ccncc2)[nH]1,inconclusive: 35.1%

row,SMILES,inhibition
1,COc1ccc(CCN=C(N)NS(=O)(=O)c2ccc(C)c(C)c2)cc1,inconclusive: 61.6%
2,O=C(CSc1nnc(CCCN2C(=O)c3cccc4cccc(c34)C2=O)n1-c1ccccc1)NCCCN1CCOCC1,inconclusive: 52.6%
3,CCCCCC(=O)Nc1ccc(N2CCN(C(=O)c3ccccc3)CC2)cc1,inconclusive: 48.2%
4,COc1cccc(CNCCc2c[nH]c3ccccc23)c1OCc1ccc(F)cc1,inactive: 1.44%
5,O=C1CN(C(=O)COC(=O)c2cccc(OCc3ccccc3)c2)c2ccccc2N1,inconclusive: 41.8%
6,COc1ccc(C(=O)c2ccc(N3CCN(C4CC(=O)NC4=O)CC3)cc2)cc1F (configuration not stated),inconclusive: 43.8%
7,Nc1cc(=O)[nH]c(=O)n1Cc1ccccc1,inconclusive: 46.1%
8,COc1ccc2[nH]c3ccccc3c2c1,inactive: 1.16%
9,CCc1cccc(C)c1NC(=S)N1CCCC1C(=O)O (configuration not stated),inconclusive: 34.5%
10,CCOc1cc(N2CCOCC2)c(OCC)cc1NC(=O)c1ccco1,inconclusive: 54.8%
11,CC1(C)N=C(N)N=C(N)N1c1cccc(C(=O)O)c1,inconclusive: 60.2%
12,O=C(COC(=O)CSc1ccc([N+](=O)[O-])cc1)NCCC1=CCCCC1,inconclusive: 44.4%
13,CC(OC(=O)c1ccc2c(c1)OCCO2)C(=O)NC1CCCCC1C (configuration not stated),inactive: -7.15%
14,O=C(CCSc1nnc(-c2ccncc2)o1)Nc1ccccc1,inconclusive: 36.7%
15,O=C(O)CCCCCNS(=O)(=O)/C=C/c1ccccc1,inactive: 1.37%
16,O=C(/C=C/c1ccco1)N1CCc2ccccc21,inconclusive: 59.3%
17,CCCCc1ccc(-c2csc(/C(C#N)=C\c3ccc(C)o3)n2)cc1,inconclusive: 45.5%
18,CN1CCN(c2ccccc2NC(=O)c2ccc(Br)o2)CC1,inactive: 0.41%
19,CN(Cc1ccon1)Cc1cn(C)nc1-c1ccc2c(c1)OCCO2,inconclusive: 52.1%

row,SMILES,inhibition
1,CCOC(=O)c1c(C)c(C(=O)NC2CCCCC2)c(C)n1CC,inconclusive: 43.1%
2,CCOc1ccc(NCC(=O)Nc2ccc(Cl)cc2C)cc1,inconclusive: 34.9%
3,Cc1ccc2oc(C(=O)Nc3nnc(C)s3)c(C)c2c1,inconclusive: 58.3%
4,CC(=O)Nc1ccc(S(=O)(=O)N2CCSC2C(=O)O)cc1 (configuration not stated),inconclusive: 54.2%
5,Cc1nn(C)c(C)c1CN(C)S(=O)(=O)c1ccc2ccccc2c1,inconclusive: 37.7%
6,OC1CCCN(C(=S)Nc2ccc(SC(F)F)cc2)C1 (configuration not stated),inactive: 21.9%
7,Cc1cccc(NC(=O)CN2C(=O)N/C(=C\c3ccc(-c4cccc(C(=O)O)c4)o3)C2=O)c1,inconclusive: 47.9%
8,Cc1ccccc1C(=O)c1c[nH]c(C(=O)NCCCn2ccnc2)c1,inconclusive: 59%
9,O=C(O)CCC(=O)Nc1ccc(N2CCCCCC2)cc1,inconclusive: 54.1%
10,Cc1nn2c(N3CCN(C(=O)c4ccco4)CC3)cc(C(C)(C)C)nc2c1-c1ccc(Cl)cc1,inconclusive: 48.5%
11,S=c1[nH]nc(-c2ccc(Br)cc2)n1Cc1ccco1,inconclusive: 40.8%
12,COc1cc(/C=N/NC(=O)c2sc(N)c(C#N)c2C)ccc1O,inconclusive: 37%
13,CC(C)CN(C(=O)COC(=O)CCc1c[nH]c2ccccc12)C1CCS(=O)(=O)C1 (configuration not stated),inconclusive: 18.4%
14,COc1ccc(S(=O)(=O)N(C(=O)C(C)C)c2ccc3oc(=O)sc3c2)cc1,inconclusive: 34%
15,C/C(C/C(C)=C1/SC(=S)NC1=O)=C1\SC(=S)NC1=O,inconclusive: 42.7%
16,O=C(N/N=C/c1ccc(N2CCCCC2)o1)c1ccccc1,inconclusive: 51.8%
17,O=[N+]([O-])c1ccc(Sc2cccc[n+]2[O-])c2nonc12,inconclusive: 45.5%
18,O=C1CC(Nc2ccc(N3CCOCC3)cc2)C(=O)N1c1ccccc1 (configuration not stated),inactive: 16.9%
19,CCOc1cc(-c2cc(-c3ccc(C)o3)nc(N)c2C#N)ccc1O,inconclusive: 37.5%

# Some of the entries so far, as tab-separated lines:
row	SMILES	inhibition
18	O=C1CC(Nc2ccc(N3CCOCC3)cc2)C(=O)N1c1ccccc1 (configuration not stated)	inactive: 16.9%
19	CCOc1cc(-c2cc(-c3ccc(C)o3)nc(N)c2C#N)ccc1O	inconclusive: 37.5%
